Results as given in PubChem BioAssay AID1487 (National Center for Advancing Translational Sciences (NCATS), 2009).
The other results are listed elsewhere or left out. These are further read-outs of the screen, such as a control signal, another cell line or another target. No call is given for them. Compounds called inactive in the main read-out are mostly missing here. The note in brackets gives the kind of curve behind each potency; many fits are weak.

Assay: qHTS Assay for Modulators of Lamin A Splicing
Settings: HeLa LMNA splicing GFP/RFP minigene ratio, 48 h
Outline: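 Read-out is the ratio of GFP to DsRed2 object intensity, acquired by 488 nm laser-scanning cytometry on HeLa lamin A-EGFP minigene reporter cells. Compound incubation 48 hrs at 37 °C in Opti-MEM with 2% FBS; DMSO 0.5% final.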

[1] = measured here: GFP splicing reporter channel
[2] = measured here: RFP viability control channel

COC(=O)c1c(NC(NC(=O)C(C)C)C(Cl)(Cl)Cl)sc2c1CCCC2 (stereo unspecified)
AC50 [1]: 31.6 µM [rising, single point] | AC50 [2]: 35.5 µM [rising, single point]

CSC(SC)=C(C#N)C(=O)c1ccccc1
AC50 [1]: 3.16 µM [falling, partial curve] | AC50 [2]: 3.16 µM [falling, full curve]

COC(=O)c1ccc(CSc2nnc3sc4ccccc4n23)o1
AC50 [1]: 1.58 µM [falling, partial curve, poor fit]

CCN1C(=Nc2ccc(Cl)cc2)SC/C1=C\C(=O)OC
AC50 [2]: 15.8 µM [rising, single point]

CC1CN(S(=O)(=O)c2ccc(C(=O)Nc3nc(-c4cc5ccccc5o4)cs3)cc2)CC(C)O1 (stereo unspecified)
AC50 [1]: 0.562 µM [rising, full curve, poor fit] | AC50 [2]: 0.891 µM [rising, full curve]

O=[N+]([O-])c1ccc(O)c(/C=N\N=C2c3ccccc3-c3ccccc32)c1
AC50 [2]: 12.6 µM [rising, partial curve]

CN1CC(c2ccccn2)C2(SC(=S)N(Cc3ccccc3)C2=O)C12C(=O)Nc1ccccc12 (stereo unspecified)
AC50 [2]: 12.6 µM [falling, partial curve, poor fit]

Cc1ccc(C)c(NC(=O)c2nc(-c3ccccc3)n(-c3ccccc3)n2)c1
AC50 [1]: 35.5 µM [rising, single point]

COc1cc(CNc2ccc3[nH]c(=O)[nH]c3c2)cc(Br)c1OCc1ccccc1F
AC50 [1]: 0.0501 µM [falling, full curve] | AC50 [2]: 0.0282 µM [falling, full curve, poor fit]

Cc1cc(NC(=O)CSc2nc3ccccc3c(=O)n2C(C)c2ccccc2)no1 (stereo unspecified)
AC50 [2]: 15.8 µM [rising, single point]

NC(=O)CCCSc1nc2ccccc2[nH]1
AC50 [2]: 0.112 µM [rising, single point]

COc1ccc(/C=C/C(=O)c2ccncc2)c2ccccc12
AC50 [1]: 35.5 µM [rising, single point] | AC50 [2]: 28.2 µM [rising, partial curve]

CCNc1nc(-c2ccc(Cl)cc2)cs1
AC50 [1]: 11.2 µM [rising, partial curve] | AC50 [2]: 12.6 µM [rising, single point]

O=C(CSc1nc(-c2ccc(F)cc2)cc(C(F)(F)F)n1)NCc1cccs1
AC50 [2]: 0.00316 µM [rising, full curve, poor fit]

Cc1ccc(-c2csc3ncnc(-n4nnc5ccccc54)c23)cc1
AC50 [2]: 10 µM [rising, partial curve, poor fit]

COc1ccc(C(C(=O)NCc2ccccc2)N(Cc2ccco2)C(=O)c2cnccn2)cc1 (stereo unspecified)
AC50 [1]: 0.562 µM [falling, full curve, poor fit]

COc1cccc([C@@H]2Oc3ccc(OC)cc3C(=O)[C@H]2O)c1
AC50 [1]: 35.5 µM [rising, single point]

CN(C)c1ccc(NC(=O)c2cccc(N3C(=O)CCC3=O)c2)cc1
AC50 [1]: 1.12 µM [rising, single point] | AC50 [2]: 2.24 µM [rising, partial curve]

Cc1c(Cl)cccc1-n1nc(C)c2c(C)cc(=O)n(CC(=O)N3CCCc4ccccc43)c21
AC50 [2]: 20 µM [rising, single point]

Cc1ccc(CNC(=O)CCCN2C(=O)CCn3nc(-c4cccn4C)cc32)cc1
AC50 [1]: 7.94 µM [falling, partial curve, poor fit] | AC50 [2]: 7.08 µM [falling, full curve]

CCOC(=O)c1sc2ccc(S(=O)(=O)N3CCOCC3)cc2c1N
AC50 [1]: 12.6 µM [rising, single point] | AC50 [2]: 20 µM [rising, single point]

O=C(NC(Cc1c[nH]c2ccccc12)C(=O)Nc1ccc(F)c([N+](=O)[O-])c1)c1cccs1 (stereo unspecified)
AC50 [2]: 1.12 µM [rising, full curve]

COc1ccccc1N1CCN(C(=O)C2CCN(S(=O)(=O)c3ccc(F)cc3)CC2)CC1
AC50 [1]: 0.1 µM [rising, partial curve, poor fit]

C/C(=N\NC(=S)NCc1ccccc1)c1ccc(C(C)(C)C)cc1
AC50 [2]: 14.1 µM [rising, partial curve]

CCCNC(=O)C1CCN(c2nc3ccc(C)cc3[nH]2)CC1
AC50 [1]: 0.447 µM [rising, full curve, poor fit]

Cc1cnc(=O)[nH]c1SCC(=O)Nc1cc(C(F)(F)F)ccc1Cl
AC50 [2]: 7.08 µM [falling, full curve, poor fit]

Clc1ccc(C2=NN=C3COc4ccccc4N3C2)cc1
AC50 [1]: 0.141 µM [rising, full curve, poor fit] | AC50 [2]: 0.0891 µM [rising, full curve, poor fit]

N=c1ccn(Cc2ccc(Cl)c(Cl)c2)cc1
AC50 [1]: 3.16 µM [rising, full curve] | AC50 [2]: 11.2 µM [rising, partial curve]

CCOC(=O)c1ccc2c(c1)N(Cc1ccc(F)cc1Cl)C(=O)c1ccccc1S2
AC50 [2]: 4.47 µM [rising, partial curve, poor fit]

COc1ccc(OC)c(C(=O)CN2C(=O)N(c3ccc(C)cc3)S(=O)(=O)c3ccccc32)c1
AC50 [1]: 11.2 µM [falling, partial curve, poor fit]

O=C(CNC(=O)C12CC3CC(CC(C3)C1)C2)OCc1cc(=O)n2cc(Br)ccc2n1
AC50 [2]: 0.0282 µM [falling, full curve, poor fit]

COc1ccccc1-c1nccc(NCc2cccc(C)c2)n1
AC50 [1]: 6.31 µM [falling, full curve]

CC(C)Oc1cccc(C(=O)C2CCCN(Cc3cccn3-c3ccccn3)C2)c1 (stereo unspecified)
AC50 [1]: 0.0112 µM [rising, full curve, poor fit] | AC50 [2]: 6.31 µM [rising, single point]

Cc1no[n+]([O-])c1COc1ccc(/C=N/n2nnnc2N)cc1
AC50 [1]: 35.5 µM [rising, single point]

CCC(C)NC(=O)c1ccccc1NC(=O)COc1ccc(OC)cc1 (stereo unspecified)
AC50 [1]: 35.5 µM [falling, single point]

Cc1ccc(S(=O)(=O)N(Cc2ccc(Cl)cc2)c2ccccc2C(=O)NCc2ccco2)cc1
AC50 [1]: 11.2 µM [falling, partial curve] | AC50 [2]: 12.6 µM [falling, single point]

CCOc1ccc(CC2c3cc(OCC)c(OCC)cc3CCN2C(=O)CN2CCN(C)CC2)cc1OCC (stereo unspecified)
AC50 [2]: 6.31 µM [rising, single point]

COc1cccc(/C=C/C(=O)c2ccc[nH]2)c1
AC50 [1]: 1.12 µM [falling, partial curve] | AC50 [2]: 14.1 µM [rising, single point]

Cc1ccccc1NC(=O)CCn1nc(-c2ccccc2)c2ccccc2c1=O
AC50 [2]: 0.0355 µM [falling, full curve, poor fit]

COc1ccccc1N1CCN(c2csc3ccccc3c2=O)CC1
AC50 [1]: 8.91 µM [falling, partial curve, poor fit]

Cc1ccccc1OCCn1cc(/C(N)=N/O)c2ccccc21
AC50 [1]: 20 µM [rising, single point] | AC50 [2]: 31.6 µM [rising, single point]

O=C(N/N=C/c1ccc(Br)cc1)c1ccccc1-n1cccc1
AC50 [1]: 35.5 µM [falling, single point] | AC50 [2]: 35.5 µM [falling, single point]

COc1ccc(C(=O)Sc2ccc(Cl)cc2)cc1OC
AC50 [2]: 11.2 µM [falling, partial curve]

O=C(c1ccc2nc(-c3ccco3)c(-c3ccco3)nc2c1)N1CCN(c2ccccc2)CC1
AC50 [1]: 14.1 µM [rising, single point] | AC50 [2]: 17.8 µM [rising, single point]

CN1CCN(C2=Nc3ccccc3Sc3ccc(Cl)cc32)CC1
AC50 [1]: 2 µM [falling, partial curve, poor fit] | AC50 [2]: 0.02 µM [falling, full curve]

COc1ccccc1CNc1ccnc(-c2cccnc2)n1
AC50 [1]: 11.2 µM [falling, partial curve, poor fit]

Cc1ccc(NCCC(=O)c2ccc(Cl)cc2)cc1
AC50 [1]: 22.4 µM [falling, single point]

Cc1ccc(C(=O)Nc2sc3c(c2C(=O)O)CCCCC3)o1
AC50 [1]: 5.62 µM [rising, partial curve] | AC50 [2]: 11.2 µM [rising, partial curve]

CCCCOc1ccc(N=Cc2cccs2)cc1
AC50 [2]: 2.51 µM [rising, partial curve, poor fit]

CCOc1cccc(-n2nnnc2-c2ccc(OC)cc2)c1
AC50 [2]: 5.01 µM [rising, partial curve]

COCCn1c(SCC(=O)N2CCCc3ccccc32)nc2ccccc2c1=O
AC50 [1]: 12.6 µM [rising, single point] | AC50 [2]: 11.2 µM [rising, partial curve, poor fit]

O=C(NNc1nc(-c2ccccc2)c2cc(Br)ccc2n1)c1ccc(S(=O)(=O)N2CCCCC2)cc1
AC50 [1]: 35.5 µM [rising, single point] | AC50 [2]: 25.1 µM [rising, single point]

Cc1ccccc1CS(=O)(=O)c1cnc2ccccc2n1
AC50 [1]: 35.5 µM [falling, single point]

Cc1cccc(N2CCN(C(=O)c3csc4ccccc34)CC2C)c1 (stereo unspecified)
AC50 [1]: 35.5 µM [falling, single point]

Cc1cccc(C2=NN(c3ccc(Br)cc3)[C@@H](C(=O)N3CCOC3=O)[C@@H]2c2ccc(F)cc2)c1
AC50 [2]: 12.6 µM [rising, partial curve]
